Measurements reported in PubChem BioAssay AID1259274 (Sanger Institute, 2017).
Purpose: 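siRNA screen of kinases for partners that act in synergy with targeted drugs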 (primary screen). Cells: human RKO colorectal cancer cells. Reagent: siRNA pool against human genes. Treatment: anchor drugs BYL719 at 1 µM, cetuximab at 5 µg/ml or trametinib at 10 nM; DMSO vehicle as the no-drug arm. Measurement: 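Viability as fraction of non-targeting pool 2 control, averaged across replicates, robust z-score for single knock-down, and a combination synergy score per anchor drug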. Scale: viability z-score, siRNA alone: higher = more viable cells; low values mean essential gene; viability, siRNA alone, vehicle: higher = more viable cells; synergy score with BYL719 and synergy score with Trametinib and synergy score with Cetuximab: higher = stronger combined killing with the drug. Hit rule: 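a single knock-down scoring under -3 on the robust z-score, meaning fewer cells, counts as essential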. Meaning of the calls: active = essential when knocked down alone; inactive = no change alone.
The whole screen tested 794 reagents; this is a part drawn at random. Over the whole deposit, 11 (1.4%) got an active call. 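Calls rest on knock-down without drug only; synergy scores with anchor drugs were not used for the essential call.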 Entries without a mark were called inactive. Viability is capped at 1. Not given: the amount of reagent, the time to read-out.

The first 5 records, to show the layout:
| target | viability z-score, siRNA alone | viability, siRNA alone, vehicle (fraction of control) | synergy score with BYL719 | synergy score with Trametinib | synergy score with Cetuximab |
| --- | --- | --- | --- | --- | --- |
| MKNK1 (MAPK interacting serine/threonine kinase 1) | 1.1 | 0.993 | -0.0961 | -0.286 | -0.00735 |
| NTRK2 (neurotrophic receptor tyrosine kinase 2) | 0.503 | 0.941 | -0.109 | -0.225 | 0.063 |
| ANKK1 (ankyrin repeat and kinase domain containing 1) | 0.136 | 0.91 | -0.06 | -0.157 | -0.0202 |
| PRKDC (protein kinase, DNA-activated, catalytic subunit) | -1.38 | 0.779 | -0.0289 | 0.011 | -0.109 |
| MAPK6 (mitogen-activated protein kinase 6) | -1.26 | 0.79 | -0.0339 | -0.166 | -0.0562 |

Main list, from the start:
| target | viability z-score, siRNA alone | viability, siRNA alone, vehicle (fraction of control) | synergy score with BYL719 | synergy score with Trametinib | synergy score with Cetuximab |
| --- | --- | --- | --- | --- | --- |
| MKNK1 (MAPK interacting serine/threonine kinase 1) | 1.1 | 0.993 | -0.0961 | -0.286 | -0.00735 |
| NTRK2 (neurotrophic receptor tyrosine kinase 2) | 0.503 | 0.941 | -0.109 | -0.225 | 0.063 |
| ANKK1 (ankyrin repeat and kinase domain containing 1) | 0.136 | 0.91 | -0.06 | -0.157 | -0.0202 |
| PRKDC (protein kinase, DNA-activated, catalytic subunit) | -1.38 | 0.779 | -0.0289 | 0.011 | -0.109 |
| MAPK6 (mitogen-activated protein kinase 6) | -1.26 | 0.79 | -0.0339 | -0.166 | -0.0562 |
| TSSK2 (testis specific serine kinase 2) | -0.804 | 0.829 | -0.0878 | -0.00485 | -0.0721 |
| PRKAG3 (protein kinase AMP-activated non-catalytic subunit gamma 3) | -2.77 | 0.661 | -0.0752 | -0.0602 | -0.143 |
| ATR (ATR checkpoint kinase) | 1.15 | 0.997 | 0.0714 | -0.146 | -0.00337 |
| FGFR4 (fibroblast growth factor receptor 4) | 0.23 | 0.918 | -0.0993 | -0.268 | -0.0823 |
| EPHA1 (EPH receptor A1) | 0.0696 | 0.904 | -0.124 | -0.105 | -0.096 |
| TESK2 (testis associated actin remodelling kinase 2) | -0.525 | 0.853 | -0.0576 | -0.267 | 0.0501 |
| PDGFRA (platelet derived growth factor receptor alpha) | -0.821 | 0.828 | -0.0493 | -0.148 | -0.117 |
| STRADA (STE20 related adaptor alpha) | -0.0826 | 0.891 | -0.00434 | -0.0642 | 0.0211 |
| SMAD4 (SMAD family member 4) | 0.825 | 0.969 | 0.0589 | -0.107 | -0.0039 |
| MYLK4 (myosin light chain kinase family member 4) | -0.963 | 0.816 | -0.239 | -0.0886 | -0.109 |
| NRK (Nik related kinase) | 1.07 | 0.99 | 0.0241 | -0.0649 | 0.0177 |
| DDR2 (discoidin domain receptor tyrosine kinase 2) | 0.676 | 0.956 | -0.0498 | -0.0864 | -0.0441 |
| PIK3R5 (phosphoinositide-3-kinase regulatory subunit 5) | -1.26 | 0.79 | 0.0316 | -0.341 | -0.094 |
| BRD3 (bromodomain containing 3) | 0.55 | 0.945 | -0.118 | -0.167 | -0.0549 |
| ULK3 (unc-51 like kinase 3) | 0.919 | 0.977 | -0.0694 | -0.194 | -0.0012 |
| CSNK1A1L (casein kinase 1 alpha 1 like) | -1.3 | 0.787 | -0.176 | -0.274 | -0.152 |
| TGFBR2 (transforming growth factor beta receptor 2) | -0.231 | 0.878 | -0.0545 | 0.0457 | -0.00623 |
| NUAK2 (NUAK family kinase 2) | 0.799 | 0.966 | 0.0174 | -0.0632 | 0.0776 |
| TBK1 (TANK binding kinase 1) | 1.19 | 1 | 0.0814 | -0.319 | 0.133 |
| EPHB6 (EPH receptor B6) | -0.132 | 0.887 | -0.0574 | -0.0749 | 0.0111 |
| AK3 (adenylate kinase 3) | 1.02 | 0.986 | 0.108 | -0.083 | 0.00714 |
| NRBP2 (nuclear receptor binding protein 2) | -1.07 | 0.806 | -0.0711 | -0.109 | 0.0118 |
| CAMK2N1 (calcium/calmodulin dependent protein kinase II inhibitor 1) | 0.182 | 0.914 | -0.0265 | -0.119 | 0.00183 |
| CHKA (choline kinase alpha) | -0.847 | 0.825 | -0.125 | -0.183 | -0.0596 |
| PRKAG2 (protein kinase AMP-activated non-catalytic subunit gamma 2) | 0.274 | 0.921 | 0.0185 | -0.214 | -0.0248 |
| GNAS (GNAS complex locus) | 0.0339 | 0.901 | 0.0156 | 0.0754 | 0.196 |
| PRKD1 (protein kinase D1) | 0.887 | 0.974 | -0.0354 | -0.0468 | -0.026 |
| PTK7 (protein tyrosine kinase 7 (inactive)) | -0.555 | 0.85 | -0.00154 | -0.0593 | 0.0389 |
| MPP3 (MAGUK p55 scaffold protein 3) | -0.564 | 0.85 | 0.0421 | -0.0501 | 0.102 |
| CDK15 (cyclin dependent kinase 15) | 1.19 | 1 | 0.0106 | -0.0894 | 0.0284 |
| PTGS1 (prostaglandin-endoperoxide synthase 1) | -0.757 | 0.833 | 0.0265 | 0.0352 | 0.0691 |
| MUSK (muscle associated receptor tyrosine kinase) | -0.308 | 0.872 | -0.098 | -0.252 | -0.0694 |
| ROS1 (ROS proto-oncogene 1, receptor tyrosine kinase) | 1.19 | 1 | -0.054 | -0.0417 | 0.0239 |
| LCK (LCK proto-oncogene, Src family tyrosine kinase) | 0.128 | 0.909 | -0.174 | -0.126 | 0.0102 |
| TGFBR1 (transforming growth factor beta receptor 1) | 1.19 | 1 | -0.0783 | -0.116 | 0.0266 |
